Reference: PubChem BioAssay AID1159578 (Peter MacCallum Cancer Centre, 2015)
The whole screen tested about 18,000 reagents; this is an unselected part. In the full data, about 1,030 (5.7%) are marked active. 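Inactive calls also include pools with fewer than 3300 nuclei, whose migration was not assessed.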 Raw values are not corrected between plates. Reagents against one gene are numbered here. Not all columns of the deposit are shown. Reagent sequences are not shown.

Assay: 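Genome-wide hunt for genes controlling movement of lymphatic endothelial cells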 (primary screen)
Cell system: human lymphatic endothelial cells
Reagents: siRNA pool against human genes, 40 nM
Timing: 48 h after transfection
Read-out: 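Cells stained with dye and imaged after a scratch; covered wound area and nuclei counted, duplicates averaged, migration set against mock wells and turned into a robust z-score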
Reading the numbers: migration robust z-score: higher = faster migration into the scratch; nuclei per well: higher = more cells in the well
Rule for the call: 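Pools averaging fewer than 3300 nuclei are never called; remaining pools count as changed when migration robust z lies outside -2 to 2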
Meaning of the calls: active = migration changed; inactive = no migration change, or too few cells

| gene | reagent | migration robust z-score | nuclei per well, duplicate mean | call |
| --- | --- | --- | --- | --- |
| WBP1L (WW domain binding protein 1 like) | 1 | 1.07 | 5802 | inactive |
| WDR59 (WD repeat domain 59) | 1 | 1.4 | 4067 | inactive |
| CADM4 (cell adhesion molecule 4) | 1 | 0.59 | 6320 | inactive |
| GPR155 (G protein-coupled receptor 155) | 1 | -0.1 | 5404 | inactive |
| FABP3 (fatty acid binding protein 3) | 1 | 2.46 | 6124 | active |
| PLSCR4 (phospholipid scramblase 4) | 1 | 0.88 | 5150 | inactive |
| TWF1 (twinfilin actin binding protein 1) | 1 | 0.93 | 6119 | inactive |
| PTP4A3 (protein tyrosine phosphatase 4A3) | 1 | 0.75 | 5284 | inactive |
| BANP (BTG3 associated nuclear protein) | 1 | 0.52 | 4249 | inactive |
| UHMK1 (U2AF homology motif kinase 1) | 1 | -2.44 | 5208 | active |
| GPR180 (G protein-coupled receptor 180) | 1 | -0.78 | 6090 | inactive |
| NOXRED1 (NADP dependent oxidoreductase domain containing 1) | 1 | 1.08 | 6132 | inactive |
| LCOR (ligand dependent nuclear receptor corepressor) | 1 | -0.64 | 5518 | inactive |
| LCOR (ligand dependent nuclear receptor corepressor) | 2 | -1.31 | 5259 | inactive |
| SLC4A8 | 1 | -2.02 | 3792 | active |
| IER5 (immediate early response 5) | 1 | -0.82 | 4445 | inactive |
| SNRNP200 (small nuclear ribonucleoprotein U5 subunit 200) | 1 | -0.5 | 5438 | inactive |
| GYPC (glycophorin C (Gerbich blood group)) | 1 | 1.25 | 6046 | inactive |
| CTSE (cathepsin E) | 1 | -0.39 | 4888 | inactive |
| METTL3 | 1 | 0.39 | 4784 | inactive |
| TOMM34 (translocase of outer mitochondrial membrane 34) | 1 | -2.18 | 3603 | active |
| CLK4 (CDC like kinase 4) | 1 | -1.25 | 5932 | inactive |
| ARHGAP33 (Rho GTPase activating protein 33) | 1 | 0.56 | 5470 | inactive |
| TTC7B (tetratricopeptide repeat domain 7B) | 1 | 1.31 | 5188 | inactive |
| SAE1 (SUMO1 activating enzyme subunit 1) | 1 | 0.39 | 5365 | inactive |
| TAB1 (TGF-beta activated kinase 1 (MAP3K7) binding protein 1) | 1 | 0.42 | 5074 | inactive |
| GOLGA5 (golgin A5) | 1 | 1.12 | 5821 | inactive |
| TBC1D14 (TBC1 domain family member 14) | 1 | -0.66 | 5676 | inactive |
| AGBL1 (AGBL carboxypeptidase 1) | 1 | 1.26 | 5445 | inactive |
| ZCWPW1 (zinc finger CW-type and PWWP domain containing 1) | 1 | 1.03 | 6589 | inactive |
| CD163 (CD163 molecule) | 1 | 0.31 | 5040 | inactive |
| MPL (MPL proto-oncogene, thrombopoietin receptor) | 1 | -1.12 | 6260 | inactive |
| SNRPG (small nuclear ribonucleoprotein polypeptide G) | 1 | -0.78 | 5726 | inactive |
| TFAP2D (transcription factor AP-2 delta) | 1 | 1.43 | 4204 | inactive |
| MRFAP1L1 (Morf4 family associated protein 1 like 1) | 1 | 0.68 | 6209 | inactive |
| PSAP (prosaposin) | 1 | 0.61 | 4428 | inactive |
| WDR25 (WD repeat domain 25) | 1 | -0.7 | 5738 | inactive |
| KREMEN1 (kringle containing transmembrane protein 1) | 1 | 2.18 | 5554 | active |
| OR5B2 (olfactory receptor family 5 subfamily B member 2) | 1 | -0.52 | 5186 | inactive |

An excerpt of the results above, as a working copy:
| gene | reagent | migration robust z-score | nuclei per well, duplicate mean | call |
| --- | --- | --- | --- | --- |
| WDR59 (WD repeat domain 59) | 1 | 1.4 | 4067 | inactive |
| CADM4 (cell adhesion molecule 4) | 1 | 0.59 | 6320 | inactive |
| GPR155 (G protein-coupled receptor 155) | 1 | -0.1 | 5404 | inactive |
| FABP3 (fatty acid binding protein 3) | 1 | 2.46 | 6124 | active |
| PLSCR4 (phospholipid scramblase 4) | 1 | 0.88 | 5150 | inactive |
| TWF1 (twinfilin actin binding protein 1) | 1 | 0.93 | 6119 | inactive |
